Screen size: about 300,000 compounds; about 3,700 (1.2%) were called active. The shares of active, inactive and inconclusive entries below differ from those in the screen. Calls follow the shape of the full dose curve; tested in HEK293 cells. Potencies of inconclusive entries are doubtful fits and often do not repeat.
experiment: qHTS for Inhibitors of binding or entry into cells for Lassa Virus; conditions: Lassa virus pseudotype entry inhibition, cell reporter; activity change, negative = inhibition: at 37.9 µM (top of the series) unless noted; also: nearly all actives have a fitted effect of over 50% in size
% is scaled to controls: 0 for no effect and ±100 for the full control effect; potency is read from the fitted curve at half-maximal effect.

| Compound | activity change, negative = inhibition | Potency |
| --- | --- | --- |
| COc1cc(Cl)c(C)cc1NC(=O)Cn1cc(S(=O)(=O)N2CCC(C)CC2)c2ccccc2c1=O | inactive: -0.264% [at 46.1 µM] |  |
| COc1ccc(-c2nnn(CC(=O)c3ccc4c(c3)OCCO4)n2)cc1OC |  | inconclusive: 23.1 µM [inhibitor, single point] |
| Cc1nn(Cc2noc(C(=O)NC(C)c3ccccc3)n2)c(C)c1Br (stereo unspecified) | inactive: 3.59% [at 46.1 µM] |  |
| O=C(N/N=C/c1cn(-c2ccccc2)nc1-c1cc2ccccc2o1)c1ccncc1 |  | inconclusive: 11.2 µM [inhibitor, single point] |
| Cc1ccc(N2CCN(S(=O)(=O)c3c(C)[nH]c(=O)[nH]c3=O)CC2C)cc1 (stereo unspecified) | inactive: 16.2% [at 46.1 µM] |  |
| CN(CC(=O)Nc1c(Cl)cccc1Cl)C(=O)c1cc(-c2cccs2)nn1-c1ccccc1 |  | inconclusive: 22.4 µM [inhibitor, single point] |
| C[C@]12CC[C@H](O)CC1=CCC1C2CC[C@]2(C)C(=O)[C@H](Br)CC12 (stereo partly specified) | inactive: -19.5% |  |
| N/C(=N\OC(=O)/C=C/c1ccccc1)c1ccccc1 |  | inconclusive: 29.1 µM [inhibitor, single point] |
| CCOC(=O)C1CCN(C(=O)CN(c2cc(Cl)ccc2OC)S(=O)(=O)c2ccccc2)CC1 |  | inconclusive: 22.4 µM [inhibitor, partial curve, poor fit] |
| CC(C)n1c(SCC(=O)Nc2nc3c(s2)CCCC3)nc2c1c(=O)n(C)c(=O)n2C |  | inconclusive: 35.5 µM [inhibitor, single point] |
| O=c1cc(CSc2n[nH]c(-c3ccncc3)n2)nc2sccn12 | inactive: 11% [at 46.1 µM] |  |
| CCC1CCCCN1Cc1ccc(OC)c(C)c1 (stereo unspecified) | inactive: -24.7% |  |
| COc1ccc(C)cc1NC(=O)COCc1cc(-c2ccc(F)cc2)on1 |  | inconclusive: 35.5 µM [activator, single point] |
| CCN(CC)c1nc2ccccc2[nH]1 | inactive: 21.6% |  |
| Cc1cccc(CSc2nc(-c3cccc(C)c3)nc3c2Cc2c(CO)cnc(C)c2O3)c1 | inactive: 15.5% [at 46.1 µM] |  |
| CCN(CC)S(=O)(=O)c1ccc2c(c1)nc(CCC(=O)Nc1ccccc1Cc1ccccc1)n2CC |  | inconclusive: 7.3 µM [inhibitor, partial curve] |
| Cc1cc(-c2n[nH]c(=S)n2-c2ccc(C)c(C)c2)no1 |  | inconclusive: 5.01 µM [inhibitor, partial curve, poor fit] |
| O=C1c2ccccc2-c2cc3ccccc3cc21 | inactive: -28.5% |  |
| CNC(=O)c1sc(-c2ccccc2)nc1C | inactive: 9.37% |  |
| O=C(Nc1nc2c(s1)C(=O)CCC2)c1ccccc1 |  | inconclusive: 14.1 µM [inhibitor, single point] |
| CN(C)c1ccc(/C=c2\sc3n(c2=O)CCCN=3)cc1 |  | active: 2 µM |

Full records, quoted from the list.
Cc1cc(-c2n[nH]c(=S)n2-c2ccc(C)c(C)c2)no1 reads Potency: inconclusive: 5.01 µM [inhibitor, partial curve, poor fit]
CCN(CC)c1nc2ccccc2[nH]1 reads activity change, negative = inhibition: inactive: 21.6%

— PubChem BioAssay AID540256 (National Center for Advancing Translational Sciences (NCATS), 2011)
